Test results taken from US10716778B2, “Use of compounds that are able to increase the serum IGF-1 level for the preparation of a therapeutical composition for treatment of various disease states associated with a reduced IGF-1 serum level in humans and animals” (VEIJLEN N.V., priority 2003, dated 2020).

System: IGF-1
Experiment: IGF-1 levels in poor-growing piglets treated with IAA (Example 7)
Type: in vivo, piglets (Dutch Landrace)
Conditions: treated group B, total of 5 piglets
Text: The trial was done in a well-managed farm with 1000 sows of the Dutch Landrace. Although the farm is well run, the technical performance is not optimal. There were latent problems with mortality and with growth rates of the piglets. There are too many poor-growing piglets, without fully understanding the technical or veterinary reason. There is no clear pathology to be seen on the farm.
The farmer selected the poor-growing piglets for this weaning period. The piglets were weaned for two days at the start of the trial. There were three groups: the normal well-growing piglets, which served as a control group; the B group with 78 poor growers that are treated with 12.5 mg/kg/LW (Life Weight) IAA; and the X group with 52 poor growers that are not treated.
Blood samples for IGF-1 measuring were taken from each group at the beginning of the trial and at the end of the trial. Two pens (13 piglets) of the B and X groups were weighed at the beginning and at the end of the trial. The active ingredient IAA was mixed in dextrose. […] The B group received the treatment five days after the first IGF-1 measuring.

Question: What does the source list for indole acetic acid [IAA]?
Answer: IGF-1 level, 2nd measurement, total (after 21 days of treatment): 126.4 nmol/L; IGF-1 level, 1st measurement, total (before treatment): 22.8 nmol/L
